Data: the supplement of paper PMC12823440, “Inhibitors supercharge kinase turnover through native proteolytic circuits” (Nature, 2025)
Some of the results follow. Hit calls seldom repeat between salt and free forms of one compound.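 Kinases, fused to nanoluciferase, were expressed in K562 cells; luminescence was measured every 4 h from 2 to 18 h as percent of control (DMSO = 100%, positive control = 0%). A time point is decreased if signal falls significantly (2 sigma). Hits were called by the authors by a rule that is not shown; the count of time points alone does not decide it.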

The chains behind the UniProt entries cited, without tags or fusion partners. Where a name states a change or a piece, a line headed by the entry shows the natural chain unless it says otherwise.
UniProt P29317, whole entry: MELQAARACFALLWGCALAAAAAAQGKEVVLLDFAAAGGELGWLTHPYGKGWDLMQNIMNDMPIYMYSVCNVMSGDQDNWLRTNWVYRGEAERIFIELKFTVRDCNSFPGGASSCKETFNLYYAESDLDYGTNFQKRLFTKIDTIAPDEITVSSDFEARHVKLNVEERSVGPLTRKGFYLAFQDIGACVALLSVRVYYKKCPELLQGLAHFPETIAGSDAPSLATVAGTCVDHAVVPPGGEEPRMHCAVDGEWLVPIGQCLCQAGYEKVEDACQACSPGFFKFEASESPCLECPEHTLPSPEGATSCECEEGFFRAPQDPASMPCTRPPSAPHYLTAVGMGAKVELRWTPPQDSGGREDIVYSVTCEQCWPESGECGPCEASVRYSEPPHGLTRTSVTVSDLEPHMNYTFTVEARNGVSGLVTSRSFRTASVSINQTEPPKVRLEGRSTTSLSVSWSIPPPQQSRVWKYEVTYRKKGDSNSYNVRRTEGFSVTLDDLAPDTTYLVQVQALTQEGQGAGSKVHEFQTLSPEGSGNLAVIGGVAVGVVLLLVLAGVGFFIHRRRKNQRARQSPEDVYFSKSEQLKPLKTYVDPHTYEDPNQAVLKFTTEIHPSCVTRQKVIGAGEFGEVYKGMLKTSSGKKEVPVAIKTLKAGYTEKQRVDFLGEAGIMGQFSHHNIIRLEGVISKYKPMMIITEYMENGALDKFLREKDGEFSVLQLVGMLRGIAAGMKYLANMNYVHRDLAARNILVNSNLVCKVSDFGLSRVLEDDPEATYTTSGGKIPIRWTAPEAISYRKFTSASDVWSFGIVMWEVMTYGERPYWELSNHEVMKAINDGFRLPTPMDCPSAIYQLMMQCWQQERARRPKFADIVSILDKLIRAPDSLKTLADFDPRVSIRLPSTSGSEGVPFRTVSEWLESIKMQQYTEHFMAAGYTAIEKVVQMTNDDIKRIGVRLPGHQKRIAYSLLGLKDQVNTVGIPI
UniProt P21860, whole entry: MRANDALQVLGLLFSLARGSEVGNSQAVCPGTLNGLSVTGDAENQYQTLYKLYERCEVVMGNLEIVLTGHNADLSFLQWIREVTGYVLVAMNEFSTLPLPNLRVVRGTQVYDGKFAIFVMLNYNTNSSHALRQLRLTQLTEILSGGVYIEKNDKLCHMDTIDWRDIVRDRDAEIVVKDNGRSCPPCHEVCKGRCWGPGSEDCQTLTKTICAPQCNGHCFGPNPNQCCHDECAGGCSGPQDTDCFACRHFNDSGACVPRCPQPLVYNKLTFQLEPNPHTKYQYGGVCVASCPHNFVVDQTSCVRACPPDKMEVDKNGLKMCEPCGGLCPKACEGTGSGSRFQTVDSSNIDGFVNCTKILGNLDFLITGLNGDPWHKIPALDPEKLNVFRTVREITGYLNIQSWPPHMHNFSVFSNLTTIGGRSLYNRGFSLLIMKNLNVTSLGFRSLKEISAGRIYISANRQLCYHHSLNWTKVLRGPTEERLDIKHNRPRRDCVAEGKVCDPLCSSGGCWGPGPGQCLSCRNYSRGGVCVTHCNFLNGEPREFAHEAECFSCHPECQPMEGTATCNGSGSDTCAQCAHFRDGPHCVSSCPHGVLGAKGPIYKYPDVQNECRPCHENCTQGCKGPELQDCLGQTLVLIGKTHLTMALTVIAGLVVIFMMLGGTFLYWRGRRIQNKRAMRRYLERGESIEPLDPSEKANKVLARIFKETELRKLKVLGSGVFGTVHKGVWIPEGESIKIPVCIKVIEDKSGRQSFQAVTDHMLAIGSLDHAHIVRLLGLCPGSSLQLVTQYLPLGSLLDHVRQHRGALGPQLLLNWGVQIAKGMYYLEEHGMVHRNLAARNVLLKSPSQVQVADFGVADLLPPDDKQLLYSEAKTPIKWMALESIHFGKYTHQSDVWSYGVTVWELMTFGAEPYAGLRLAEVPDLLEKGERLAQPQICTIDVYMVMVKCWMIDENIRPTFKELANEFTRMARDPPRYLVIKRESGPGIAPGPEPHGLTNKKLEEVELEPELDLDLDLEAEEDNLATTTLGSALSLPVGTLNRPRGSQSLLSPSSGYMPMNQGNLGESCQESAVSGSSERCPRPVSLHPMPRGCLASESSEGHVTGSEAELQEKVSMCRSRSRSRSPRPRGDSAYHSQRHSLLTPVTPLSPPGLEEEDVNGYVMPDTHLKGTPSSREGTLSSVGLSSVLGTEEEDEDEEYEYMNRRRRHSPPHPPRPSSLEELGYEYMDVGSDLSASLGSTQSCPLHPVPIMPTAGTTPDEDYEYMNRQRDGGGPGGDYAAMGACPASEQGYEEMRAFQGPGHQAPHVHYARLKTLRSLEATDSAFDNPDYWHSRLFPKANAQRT
UniProt P11362, whole entry, looked up: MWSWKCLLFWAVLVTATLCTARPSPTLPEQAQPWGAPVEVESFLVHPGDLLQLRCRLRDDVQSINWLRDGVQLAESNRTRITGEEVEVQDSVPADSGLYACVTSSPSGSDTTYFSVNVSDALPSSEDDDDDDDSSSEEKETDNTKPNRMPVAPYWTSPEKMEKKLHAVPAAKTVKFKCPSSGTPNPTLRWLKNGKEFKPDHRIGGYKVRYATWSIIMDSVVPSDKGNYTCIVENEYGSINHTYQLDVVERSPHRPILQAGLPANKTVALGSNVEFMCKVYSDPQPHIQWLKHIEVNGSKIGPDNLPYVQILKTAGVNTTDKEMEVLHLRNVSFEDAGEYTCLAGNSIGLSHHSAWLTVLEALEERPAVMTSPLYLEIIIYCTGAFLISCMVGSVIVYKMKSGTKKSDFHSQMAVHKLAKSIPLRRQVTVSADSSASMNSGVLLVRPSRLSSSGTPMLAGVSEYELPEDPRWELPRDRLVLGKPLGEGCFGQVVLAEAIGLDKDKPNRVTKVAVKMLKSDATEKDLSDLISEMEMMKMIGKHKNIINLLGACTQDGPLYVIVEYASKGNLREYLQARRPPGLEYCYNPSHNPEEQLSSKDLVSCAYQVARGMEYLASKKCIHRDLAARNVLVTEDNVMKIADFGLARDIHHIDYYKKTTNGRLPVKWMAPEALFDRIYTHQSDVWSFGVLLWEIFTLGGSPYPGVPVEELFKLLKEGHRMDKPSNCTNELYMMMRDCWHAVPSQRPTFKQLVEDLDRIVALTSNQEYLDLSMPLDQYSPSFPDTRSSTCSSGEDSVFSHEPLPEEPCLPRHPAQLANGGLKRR
UniProt P21802, whole entry, looked up: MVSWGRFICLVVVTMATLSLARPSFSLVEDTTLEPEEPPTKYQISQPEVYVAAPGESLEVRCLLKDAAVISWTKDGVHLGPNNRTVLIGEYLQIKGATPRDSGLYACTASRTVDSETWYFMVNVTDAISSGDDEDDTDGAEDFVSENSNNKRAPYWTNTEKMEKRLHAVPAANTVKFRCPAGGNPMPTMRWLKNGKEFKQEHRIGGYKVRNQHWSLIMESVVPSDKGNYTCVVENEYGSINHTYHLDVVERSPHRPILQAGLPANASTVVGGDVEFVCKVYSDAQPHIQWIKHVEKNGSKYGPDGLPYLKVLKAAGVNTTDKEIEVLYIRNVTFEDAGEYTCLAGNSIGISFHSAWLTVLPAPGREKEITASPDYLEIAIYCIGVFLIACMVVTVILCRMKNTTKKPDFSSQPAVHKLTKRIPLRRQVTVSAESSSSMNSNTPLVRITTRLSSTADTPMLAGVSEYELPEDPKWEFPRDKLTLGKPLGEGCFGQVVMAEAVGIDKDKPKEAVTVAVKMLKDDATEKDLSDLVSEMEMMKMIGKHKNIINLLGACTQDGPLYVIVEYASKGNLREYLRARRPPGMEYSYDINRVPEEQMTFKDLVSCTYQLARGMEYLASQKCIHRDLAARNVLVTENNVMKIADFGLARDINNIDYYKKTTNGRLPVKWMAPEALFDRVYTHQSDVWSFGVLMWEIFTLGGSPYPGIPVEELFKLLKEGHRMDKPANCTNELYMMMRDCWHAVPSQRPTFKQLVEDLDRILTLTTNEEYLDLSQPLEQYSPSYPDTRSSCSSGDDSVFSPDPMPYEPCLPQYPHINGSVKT
UniProt P06241, whole entry, looked up: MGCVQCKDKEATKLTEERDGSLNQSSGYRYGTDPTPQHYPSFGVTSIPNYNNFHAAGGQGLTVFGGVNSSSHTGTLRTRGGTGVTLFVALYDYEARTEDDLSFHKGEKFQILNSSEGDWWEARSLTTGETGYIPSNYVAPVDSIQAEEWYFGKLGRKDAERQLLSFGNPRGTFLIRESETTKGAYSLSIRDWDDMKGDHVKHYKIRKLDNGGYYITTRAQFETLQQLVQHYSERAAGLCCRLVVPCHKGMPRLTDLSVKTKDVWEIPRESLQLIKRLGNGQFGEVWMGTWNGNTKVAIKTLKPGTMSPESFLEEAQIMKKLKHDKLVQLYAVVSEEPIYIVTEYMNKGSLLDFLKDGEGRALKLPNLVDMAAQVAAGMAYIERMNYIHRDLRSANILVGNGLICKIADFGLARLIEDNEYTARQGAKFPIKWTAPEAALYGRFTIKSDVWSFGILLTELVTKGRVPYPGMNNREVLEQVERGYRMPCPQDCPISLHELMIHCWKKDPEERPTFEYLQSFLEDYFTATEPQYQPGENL
UniProt P49840: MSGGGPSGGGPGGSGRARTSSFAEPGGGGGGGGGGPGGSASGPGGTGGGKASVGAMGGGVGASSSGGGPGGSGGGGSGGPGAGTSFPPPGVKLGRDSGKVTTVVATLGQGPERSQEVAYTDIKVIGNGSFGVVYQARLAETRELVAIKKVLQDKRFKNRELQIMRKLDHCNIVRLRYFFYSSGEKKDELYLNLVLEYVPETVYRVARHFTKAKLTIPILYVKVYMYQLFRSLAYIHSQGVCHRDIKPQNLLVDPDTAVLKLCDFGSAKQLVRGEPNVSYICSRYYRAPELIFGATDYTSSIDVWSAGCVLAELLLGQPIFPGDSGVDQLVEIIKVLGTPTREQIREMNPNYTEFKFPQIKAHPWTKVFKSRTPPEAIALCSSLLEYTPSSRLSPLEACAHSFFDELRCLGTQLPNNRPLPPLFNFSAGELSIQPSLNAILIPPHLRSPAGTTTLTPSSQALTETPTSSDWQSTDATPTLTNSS
UniProt P14616: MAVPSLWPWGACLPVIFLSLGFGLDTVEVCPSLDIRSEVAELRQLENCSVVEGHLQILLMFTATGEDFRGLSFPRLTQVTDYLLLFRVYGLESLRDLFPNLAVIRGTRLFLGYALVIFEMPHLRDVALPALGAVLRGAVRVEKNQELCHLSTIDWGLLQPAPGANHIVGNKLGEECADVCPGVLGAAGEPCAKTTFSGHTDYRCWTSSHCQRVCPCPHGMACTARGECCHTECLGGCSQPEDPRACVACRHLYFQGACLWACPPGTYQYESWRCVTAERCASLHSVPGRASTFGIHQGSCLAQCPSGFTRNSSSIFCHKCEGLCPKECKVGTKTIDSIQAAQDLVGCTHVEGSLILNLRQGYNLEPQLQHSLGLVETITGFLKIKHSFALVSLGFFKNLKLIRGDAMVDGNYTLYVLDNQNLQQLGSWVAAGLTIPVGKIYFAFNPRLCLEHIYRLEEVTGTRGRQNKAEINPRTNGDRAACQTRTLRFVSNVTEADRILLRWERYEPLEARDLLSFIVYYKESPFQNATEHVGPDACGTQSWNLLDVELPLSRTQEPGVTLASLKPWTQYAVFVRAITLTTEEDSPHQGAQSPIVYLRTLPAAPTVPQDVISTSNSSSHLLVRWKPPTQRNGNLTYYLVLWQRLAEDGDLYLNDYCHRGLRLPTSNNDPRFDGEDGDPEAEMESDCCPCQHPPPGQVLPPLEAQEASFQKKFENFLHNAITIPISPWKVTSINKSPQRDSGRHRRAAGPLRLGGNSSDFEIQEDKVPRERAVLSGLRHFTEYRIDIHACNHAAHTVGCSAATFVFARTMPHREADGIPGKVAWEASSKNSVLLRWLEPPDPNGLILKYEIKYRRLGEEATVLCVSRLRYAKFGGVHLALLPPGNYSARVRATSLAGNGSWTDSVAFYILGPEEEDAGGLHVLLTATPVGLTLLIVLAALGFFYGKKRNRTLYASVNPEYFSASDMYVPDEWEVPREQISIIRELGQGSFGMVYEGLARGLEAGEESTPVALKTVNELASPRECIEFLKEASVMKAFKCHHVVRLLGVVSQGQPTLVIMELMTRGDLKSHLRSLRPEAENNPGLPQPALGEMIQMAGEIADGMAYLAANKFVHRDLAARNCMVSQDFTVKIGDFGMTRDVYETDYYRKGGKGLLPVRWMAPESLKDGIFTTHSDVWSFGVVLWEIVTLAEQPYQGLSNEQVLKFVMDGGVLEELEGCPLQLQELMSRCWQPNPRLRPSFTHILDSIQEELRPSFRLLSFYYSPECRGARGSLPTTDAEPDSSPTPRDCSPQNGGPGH

Experiments:
Assay in all cases: kinase-Nluc reporter destabilization hit call (1 = scored as downregulated) (binary); higher = compound decreases kinase abundance
Details in all cases: K562; 2-18 h
[1] = molecular target: EGFR (UniProt P00533)
[2] = molecular target: EGFR_G719S (UniProt P00533)
[3] = molecular target: EGFR_G719S_T790M (UniProt P00533)
[4] = molecular target: EGFR_L718V (UniProt P00533)
[5] = molecular target: EGFR_L858R (UniProt P00533)
[6] = molecular target: EGFR_L861Q (UniProt P00533)
[7] = molecular target: EGFR_T790M (UniProt P00533)
[8] = molecular target: EPHA2 (UniProt P29317)
[9] = molecular target: ERBB3 (UniProt P21860)
[10] = molecular target: ERBB4_R711C (clone: ERBB4_mut) (UniProt Q15303)
[11] = molecular target: ERN1 (UniProt O75460)
[12] = molecular target: FGFR1 (UniProt P11362)
[13] = molecular target: FGFR2 (UniProt P21802)
[14] = molecular target: FGFR3 (UniProt P22607)
[15] = molecular target: FGR (UniProt P09769)
[16] = molecular target: FLT3 (UniProt P36888)
[17] = molecular target: FYN (UniProt P06241)
[18] = molecular target: GSK3A (UniProt P49840)
[19] = molecular target: HER2 (UniProt P04626)
[20] = molecular target: INSRR (UniProt P14616)

SMILES | kinase-Nluc reporter destabilization hit call [1] | kinase-Nluc reporter destabilization hit call [2] | kinase-Nluc reporter destabilization hit call [3] | kinase-Nluc reporter destabilization hit call [4] | kinase-Nluc reporter destabilization hit call [5] | kinase-Nluc reporter destabilization hit call [6] | kinase-Nluc reporter destabilization hit call [7] | kinase-Nluc reporter destabilization hit call [8] | kinase-Nluc reporter destabilization hit call [9] | kinase-Nluc reporter destabilization hit call [10] | kinase-Nluc reporter destabilization hit call [11] | kinase-Nluc reporter destabilization hit call [12] | kinase-Nluc reporter destabilization hit call [13] | kinase-Nluc reporter destabilization hit call [14] | kinase-Nluc reporter destabilization hit call [15] | kinase-Nluc reporter destabilization hit call [16] | kinase-Nluc reporter destabilization hit call [17] | kinase-Nluc reporter destabilization hit call [18] | kinase-Nluc reporter destabilization hit call [19] | kinase-Nluc reporter destabilization hit call [20]
Cc1ccc(NC(=O)N2CCN(c3nc(N)nc4sc(-c5cccnc5)nc34)CC2)cc1 [PI4KIII beta inhibitor 3] (10 µM) | inactive: 0 | inactive: 0 | inactive: 0 | inactive: 0 | inactive: 0 | inactive: 0 | inactive: 0 | inactive: 0 | inactive: 0 | inactive: 0 | inactive: 0 | inactive: 0 | inactive: 0 | inactive: 0 | inactive: 0 | inactive: 0 | inactive: 0 | inactive: 0 | inactive: 0 | inactive: 0
CN1C(=O)N[C@@H](Cc2c[nH]c3c(Cl)cccc23)C1=O [Necrostatin 2 (S enantiomer)] (10 µM) | inactive: 0 | inactive: 0 | inactive: 0 | inactive: 0 | inactive: 0 | inactive: 0 | inactive: 0 | inactive: 0 | inactive: 0 | inactive: 0 | inactive: 0 | inactive: 0 | inactive: 0 | inactive: 0 | inactive: 0 | inactive: 0 | inactive: 0 | inactive: 0 | inactive: 0 | inactive: 0
Cc1ccc(Nc2cc(N[C@@H]3CCCC[C@@H]3N)nnc2C(N)=O)nc1C (2 µM) | inactive: 0 | inactive: 0 | inactive: 0 | inactive: 0 | inactive: 0 | inactive: 0 | inactive: 0 | inactive: 0 | inactive: 0 | inactive: 0 | inactive: 0 | inactive: 0 | inactive: 0 | inactive: 0 | inactive: 0 | inactive: 0 | inactive: 0 | inactive: 0 | inactive: 0 | inactive: 0
CCCS(=O)(=O)N[C@H]1C[C@@H](N(C)c2ncnc3[nH]ccc23)C1 [Abrocitinib] (10 µM) | inactive: 0 | inactive: 0 | inactive: 0 | inactive: 0 | inactive: 0 | inactive: 0 | inactive: 0 | inactive: 0 | inactive: 0 | inactive: 0 | inactive: 0 | inactive: 0 | inactive: 0 | inactive: 0 | inactive: 0 | inactive: 0 | inactive: 0 | inactive: 0 | inactive: 0 | inactive: 0
CCNC(=O)Nc1ccc(-c2nc3c(c(N4CCOC[C@@H]4C)n2)CCN(C2COC2)C3)cc1 (2.5 µM) | inactive: 0 | inactive: 0 | inactive: 0 | inactive: 0 | inactive: 0 | inactive: 0 | inactive: 0 | inactive: 0 | inactive: 0 | inactive: 0 | inactive: 0 | inactive: 0 | inactive: 0 | inactive: 0 | inactive: 0 | inactive: 0 | inactive: 0 | inactive: 0 | inactive: 0 | inactive: 0
CC(C1CC1)n1cnc2c(NCc3cccc(C(F)(F)F)c3)nc(NCCN(C)C)nc21 (centres undefined) (10 µM) | inactive: 0 | inactive: 0 | inactive: 0 | inactive: 0 | inactive: 0 | inactive: 0 | inactive: 0 | inactive: 0 | inactive: 0 | inactive: 0 | inactive: 0 | inactive: 0 | inactive: 0 | inactive: 0 | inactive: 0 | inactive: 0 | inactive: 0 | inactive: 0 | inactive: 0 | inactive: 0
C[C@H](Nc1cc2c(-c3ccc4c(c3)OCO4)noc2cn1)c1ccccc1 (10 µM) | inactive: 0 | inactive: 0 | inactive: 0 | inactive: 0 | inactive: 0 | inactive: 0 | inactive: 0 | inactive: 0 | inactive: 0 | inactive: 0 | inactive: 0 | inactive: 0 | inactive: 0 | inactive: 0 | inactive: 0 | inactive: 0 | inactive: 0 | inactive: 0 | inactive: 0 | inactive: 0
N=C(NC(=N)N1CCCC1)Nc1ccc(OC(F)(F)F)cc1 (10 µM) | inactive: 0 | inactive: 0 | inactive: 0 | inactive: 0 | inactive: 0 | inactive: 0 | inactive: 0 | inactive: 0 | inactive: 0 | inactive: 0 | inactive: 0 | inactive: 0 | inactive: 0 | inactive: 0 | inactive: 0 | inactive: 0 | inactive: 0 | inactive: 0 | inactive: 0 | inactive: 0
Nc1ccc(Sc2nc3ccccc3s2)c(Cl)c1 [KRAS inhibitor-9] (10 µM) | inactive: 0 | inactive: 0 | inactive: 0 | inactive: 0 | inactive: 0 | inactive: 0 | inactive: 0 | inactive: 0 | inactive: 0 | inactive: 0 | inactive: 0 | inactive: 0 | inactive: 0 | inactive: 0 | inactive: 0 | inactive: 0 | inactive: 0 | inactive: 0 | inactive: 0 | inactive: 0
COc1cc2nccc(Nc3cccc(Oc4ccccc4)c3)c2cc1OC (2.5 µM) | inactive: 0 | inactive: 0 | inactive: 0 | inactive: 0 | inactive: 0 | inactive: 0 | inactive: 0 | inactive: 0 | inactive: 0 | inactive: 0 | inactive: 0 | inactive: 0 | inactive: 0 | inactive: 0 | inactive: 0 | inactive: 0 | inactive: 0 | inactive: 0 | inactive: 0 | inactive: 0
Cc1nn(CC(F)(F)F)cc1Nc1ncc(Br)c(NCc2ccc(S(N)(=O)=O)cc2)n1 (10 µM) | inactive: 0 | inactive: 0 | inactive: 0 | inactive: 0 | inactive: 0 | inactive: 0 | inactive: 0 | inactive: 0 | inactive: 0 | inactive: 0 | inactive: 0 | inactive: 0 | inactive: 0 | inactive: 0 | inactive: 0 | inactive: 0 | inactive: 0 | inactive: 0 | inactive: 0 | inactive: 0
Cc1ncsc1-c1ccc(CNC(=O)[C@@H]2C[C@@H](O)CN2C(=O)[C@@H](NC(=O)COCCOc2ccc(-c3cc(Nc4ccc(OC(F)(F)F)cc4)ncn3)cc2)C(C)(C)C)cc1 (2.5 µM) | inactive: 0 | inactive: 0 | inactive: 0 | inactive: 0 | inactive: 0 | inactive: 0 | inactive: 0 | inactive: 0 | inactive: 0 | inactive: 0 | inactive: 0 | inactive: 0 | inactive: 0 | inactive: 0 | inactive: 0 | inactive: 0 | inactive: 0 | inactive: 0 | inactive: 0 | inactive: 0
CCOC(=O)c1c(Nc2ccccc2Cl)oc(/C=C2\C=Nc3ncccc32)c1O (10 µM) | inactive: 0 | inactive: 0 | inactive: 0 | inactive: 0 | inactive: 0 | inactive: 0 | inactive: 0 | inactive: 0 | inactive: 0 | inactive: 0 | inactive: 0 | inactive: 0 | inactive: 0 | inactive: 0 | inactive: 0 | inactive: 0 |  | inactive: 0 | inactive: 0 | inactive: 0
COc1c(O)cc(O)c2c(=O)cc(-c3ccccc3)oc12 [Wogonin] (10 µM) | inactive: 0 | inactive: 0 | inactive: 0 | inactive: 0 | inactive: 0 | inactive: 0 | inactive: 0 | inactive: 0 | inactive: 0 | inactive: 0 | inactive: 0 | inactive: 0 | inactive: 0 | inactive: 0 | inactive: 0 | active: 1 | inactive: 0 | inactive: 0 | inactive: 0 | inactive: 0
O=C(C#Cc1ccccc1)c1cccc([N+](=O)[O-])c1 (10 µM) | inactive: 0 | inactive: 0 | inactive: 0 | inactive: 0 | inactive: 0 | inactive: 0 | inactive: 0 | inactive: 0 | inactive: 0 | inactive: 0 | inactive: 0 | inactive: 0 | inactive: 0 | inactive: 0 | inactive: 0 | inactive: 0 | inactive: 0 | inactive: 0 | inactive: 0 | inactive: 0
COc1cc2nc(NC3CC3)nc(NC3CCN(C(C)C)CC3)c2cc1OC (10 µM) | inactive: 0 | inactive: 0 | inactive: 0 | inactive: 0 | inactive: 0 | inactive: 0 | inactive: 0 | inactive: 0 | inactive: 0 | inactive: 0 | inactive: 0 | inactive: 0 | inactive: 0 | inactive: 0 | inactive: 0 | inactive: 0 | inactive: 0 | inactive: 0 | inactive: 0 | inactive: 0

Ordered by molar mass (high to low): 3 of the compounds above.
SMILES | kinase-Nluc reporter destabilization hit call [1] | kinase-Nluc reporter destabilization hit call [2] | kinase-Nluc reporter destabilization hit call [3] | kinase-Nluc reporter destabilization hit call [4] | kinase-Nluc reporter destabilization hit call [5] | kinase-Nluc reporter destabilization hit call [6] | kinase-Nluc reporter destabilization hit call [7] | kinase-Nluc reporter destabilization hit call [8] | kinase-Nluc reporter destabilization hit call [9] | kinase-Nluc reporter destabilization hit call [10] | kinase-Nluc reporter destabilization hit call [11] | kinase-Nluc reporter destabilization hit call [12] | kinase-Nluc reporter destabilization hit call [13] | kinase-Nluc reporter destabilization hit call [14] | kinase-Nluc reporter destabilization hit call [15] | kinase-Nluc reporter destabilization hit call [16] | kinase-Nluc reporter destabilization hit call [17] | kinase-Nluc reporter destabilization hit call [18] | kinase-Nluc reporter destabilization hit call [19] | kinase-Nluc reporter destabilization hit call [20]
C[C@H](Nc1cc2c(-c3ccc4c(c3)OCO4)noc2cn1)c1ccccc1 (10 µM) | inactive: 0 | inactive: 0 | inactive: 0 | inactive: 0 | inactive: 0 | inactive: 0 | inactive: 0 | inactive: 0 | inactive: 0 | inactive: 0 | inactive: 0 | inactive: 0 | inactive: 0 | inactive: 0 | inactive: 0 | inactive: 0 | inactive: 0 | inactive: 0 | inactive: 0 | inactive: 0
N=C(NC(=N)N1CCCC1)Nc1ccc(OC(F)(F)F)cc1 (10 µM) | inactive: 0 | inactive: 0 | inactive: 0 | inactive: 0 | inactive: 0 | inactive: 0 | inactive: 0 | inactive: 0 | inactive: 0 | inactive: 0 | inactive: 0 | inactive: 0 | inactive: 0 | inactive: 0 | inactive: 0 | inactive: 0 | inactive: 0 | inactive: 0 | inactive: 0 | inactive: 0
CN1C(=O)N[C@@H](Cc2c[nH]c3c(Cl)cccc23)C1=O [Necrostatin 2 (S enantiomer)] (10 µM) | inactive: 0 | inactive: 0 | inactive: 0 | inactive: 0 | inactive: 0 | inactive: 0 | inactive: 0 | inactive: 0 | inactive: 0 | inactive: 0 | inactive: 0 | inactive: 0 | inactive: 0 | inactive: 0 | inactive: 0 | inactive: 0 | inactive: 0 | inactive: 0 | inactive: 0 | inactive: 0
